Measurements taken from paper PMC10141581.
No constants are given. Whether binding was seen depends on the method and setting. In cells and extracts the contact can be indirect.

Sequences of proteins named here, by UniProt entry; tags and fusion partners are left off.
UniProt Q96SW2: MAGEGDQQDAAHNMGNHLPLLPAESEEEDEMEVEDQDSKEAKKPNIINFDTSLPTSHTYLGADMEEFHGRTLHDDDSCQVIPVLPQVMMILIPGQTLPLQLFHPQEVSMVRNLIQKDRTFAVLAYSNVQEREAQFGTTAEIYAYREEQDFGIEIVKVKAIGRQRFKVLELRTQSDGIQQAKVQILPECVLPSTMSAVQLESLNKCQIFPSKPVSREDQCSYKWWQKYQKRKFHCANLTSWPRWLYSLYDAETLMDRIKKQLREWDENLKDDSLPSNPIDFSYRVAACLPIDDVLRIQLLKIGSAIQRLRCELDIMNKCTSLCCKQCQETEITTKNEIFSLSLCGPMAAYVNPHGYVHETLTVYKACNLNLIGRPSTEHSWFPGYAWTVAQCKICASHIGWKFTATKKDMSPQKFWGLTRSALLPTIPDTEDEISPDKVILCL
UniProt P63104: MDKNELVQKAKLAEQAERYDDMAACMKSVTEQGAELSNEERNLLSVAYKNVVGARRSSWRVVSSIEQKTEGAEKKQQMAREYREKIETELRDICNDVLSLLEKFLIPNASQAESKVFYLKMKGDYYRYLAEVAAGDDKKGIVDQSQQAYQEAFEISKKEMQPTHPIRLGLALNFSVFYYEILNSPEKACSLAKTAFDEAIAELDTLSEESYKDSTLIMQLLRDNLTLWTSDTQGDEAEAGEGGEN

Target: FLAG-CRBN (human) (UniProt Q96SW2)
Test: co-IP; 20 μM purified Myc-14-3-3ζ added to lysate of HEK293T cells expressing FLAG-CRBN (Calyculin A, no phosphatase), 1 h; ANTI-FLAG M2 affinity gel; 50 mM Tris pH 7.5, 150 mM NaCl; Western blot with α-FLAG and α-myc; only the binder purified

myc-14-3-3ζ WT (from UniProt P63104 1-245)
binding: no binding (tested: 20 μM)
